Values from PubChem BioAssay AID652243 (Drosophila RNAi Screening Center, 2013).
The deposit covers about 24,000 reagents; this is an unselected part of those with a known target gene and a result. Of all reagents, 246 (1%) were called active. 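Plates not normalised; calls are printed but the firefly/Renilla ratio behind them is not deposited; fold cut for lowering reported inconsistently.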 Raw values vary from plate to plate and are shown uncorrected. A number with no mark means an inactive call. No sequences are given here. Not given: the amount of reagent.

- Assay: 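Fly regulators of androgen-dependent reporter output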 (primary screen)
- System: Drosophila S2R+ cells
- Reagents: long dsRNA against Drosophila genes
- Duration: 72 h (48 h, then 24 h hormone)
- Treatment: synthetic androgen R1881 at 10 nM for 24 h
- Measured: 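Firefly light from an androgen-responsive reporter and Renilla control light per well, raw and unnormalised, for each of two replicates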
- Reading the numbers: firefly reporter light: higher = more light from androgen-responsive reporter; Renilla control light: higher = more constitutive control signal (cell number, transfection)
- Hit rule: 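Hit when the log firefly-to-Renilla ratio dropped or increased by a fixed fold versus the mean of GFP or LacZ controls across duplicate plates; lowering cut given as 1.5 and as 3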
- Calls: active = hit: reporter lowered or raised; inactive = no hit

Golgin84 (Golgin-84) [DRSC15269]: firefly reporter light, replicate 1 = 2.21e5; firefly reporter light, replicate 2 = 2.70e5; Renilla control light, replicate 1 = 2.60e6; Renilla control light, replicate 2 = 2.50e6
Cyp4p1 (Cytochrome P450 4p1) [DRSC07372]: firefly reporter light, replicate 1 = 4.38e5; firefly reporter light, replicate 2 = 2.56e5; Renilla control light, replicate 1 = 2.48e6; Renilla control light, replicate 2 = 2.12e6
Cyp4p1 (Cytochrome P450 4p1) [DRSC26036]: firefly reporter light, replicate 1 = 3.03e5; firefly reporter light, replicate 2 = 3.88e5; Renilla control light, replicate 1 = 8.86e5; Renilla control light, replicate 2 = 8.84e5
CG5070 [DRSC19932]: firefly reporter light, replicate 1 = 3.57e5; firefly reporter light, replicate 2 = 3.76e5; Renilla control light, replicate 1 = 2.82e6; Renilla control light, replicate 2 = 2.56e6
CG5070 [DRSC28082]: firefly reporter light, replicate 1 = 7.97e5; firefly reporter light, replicate 2 = 1.15e6; Renilla control light, replicate 1 = 1.84e6; Renilla control light, replicate 2 = 1.81e6
CG14500 [DRSC06471]: firefly reporter light, replicate 1 = 1.31e5; firefly reporter light, replicate 2 = 1.39e5; Renilla control light, replicate 1 = 1.91e6; Renilla control light, replicate 2 = 1.91e6
btsz (bitesize) [DRSC15320]: firefly reporter light, replicate 1 = 1.30e5; firefly reporter light, replicate 2 = 1.08e5; Renilla control light, replicate 1 = 1.89e6; Renilla control light, replicate 2 = 2.09e6
btsz (bitesize) [DRSC16231]: firefly reporter light, replicate 1 = 86561; firefly reporter light, replicate 2 = 1.19e5; Renilla control light, replicate 1 = 2.32e6; Renilla control light, replicate 2 = 2.38e6
btsz (bitesize) [DRSC23250]: firefly reporter light, replicate 1 = 5.13e5; firefly reporter light, replicate 2 = 5.13e5; Renilla control light, replicate 1 = 1.17e6; Renilla control light, replicate 2 = 1.44e6
btsz (bitesize) [DRSC28867]: firefly reporter light, replicate 1 = 4.13e5; firefly reporter light, replicate 2 = 4.11e5; Renilla control light, replicate 1 = 1.25e6; Renilla control light, replicate 2 = 1.45e6
CG34176 [DRSC00435]: firefly reporter light, replicate 1 = 1.31e5; firefly reporter light, replicate 2 = 1.41e5; Renilla control light, replicate 1 = 1.19e6; Renilla control light, replicate 2 = 1.26e6
IntS8 (Integrator 8) [DRSC07417]: firefly reporter light, replicate 1 = 9.86e5; firefly reporter light, replicate 2 = 1.31e6; Renilla control light, replicate 1 = 1.76e6; Renilla control light, replicate 2 = 1.68e6
CG7290 [DRSC10800]: firefly reporter light, replicate 1 = 3.84e5; firefly reporter light, replicate 2 = 2.45e5; Renilla control light, replicate 1 = 2.98e6; Renilla control light, replicate 2 = 2.63e6
CG7290 [DRSC26651]: firefly reporter light, replicate 1 = 2.51e5; firefly reporter light, replicate 2 = 2.07e5; Renilla control light, replicate 1 = 8.30e5; Renilla control light, replicate 2 = 7.68e5
CG16974 [DRSC02551]: firefly reporter light, replicate 1 = 5.27e5; firefly reporter light, replicate 2 = 5.29e5; Renilla control light, replicate 1 = 1.60e6; Renilla control light, replicate 2 = 1.41e6
CG16974 [DRSC28759]: firefly reporter light, replicate 1 = 6.45e5; firefly reporter light, replicate 2 = 5.97e5; Renilla control light, replicate 1 = 1.67e6; Renilla control light, replicate 2 = 1.75e6
CG40486 [DRSC20619]: firefly reporter light, replicate 1 = 1.05e5; firefly reporter light, replicate 2 = 1.13e5; Renilla control light, replicate 1 = 6.63e5; Renilla control light, replicate 2 = 9.25e5
Dcr-2 (Dicer-2) [DRSC06992]: firefly reporter light, replicate 1 = 1.94e5; firefly reporter light, replicate 2 = 2.02e5; Renilla control light, replicate 1 = 4.06e6; Renilla control light, replicate 2 = 4.06e6
Dcr-2 (Dicer-2) [DRSC29436]: firefly reporter light, replicate 1 = 6.10e5; firefly reporter light, replicate 2 = 5.91e5; Renilla control light, replicate 1 = 8.51e5; Renilla control light, replicate 2 = 8.51e5
robl62A [DRSC08153]: firefly reporter light, replicate 1 = 88079; firefly reporter light, replicate 2 = 54846; Renilla control light, replicate 1 = 1.07e6; Renilla control light, replicate 2 = 8.68e5
beta-Man (beta-Mannosidase) [DRSC12208]: firefly reporter light, replicate 1 = 32786; firefly reporter light, replicate 2 = 67483; Renilla control light, replicate 1 = 2.21e5; Renilla control light, replicate 2 = 2.68e5
beta-Man (beta-Mannosidase) [DRSC12209]: firefly reporter light, replicate 1 = 1.53e5; firefly reporter light, replicate 2 = 1.22e5; Renilla control light, replicate 1 = 3.94e6; Renilla control light, replicate 2 = 2.78e6

Entries above whose gene name starts with B or b (6):
btsz (bitesize) [DRSC15320]: firefly reporter light, replicate 1 = 1.30e5; firefly reporter light, replicate 2 = 1.08e5; Renilla control light, replicate 1 = 1.89e6; Renilla control light, replicate 2 = 2.09e6
btsz (bitesize) [DRSC16231]: firefly reporter light, replicate 1 = 86561; firefly reporter light, replicate 2 = 1.19e5; Renilla control light, replicate 1 = 2.32e6; Renilla control light, replicate 2 = 2.38e6
btsz (bitesize) [DRSC23250]: firefly reporter light, replicate 1 = 5.13e5; firefly reporter light, replicate 2 = 5.13e5; Renilla control light, replicate 1 = 1.17e6; Renilla control light, replicate 2 = 1.44e6
btsz (bitesize) [DRSC28867]: firefly reporter light, replicate 1 = 4.13e5; firefly reporter light, replicate 2 = 4.11e5; Renilla control light, replicate 1 = 1.25e6; Renilla control light, replicate 2 = 1.45e6
beta-Man (beta-Mannosidase) [DRSC12208]: firefly reporter light, replicate 1 = 32786; firefly reporter light, replicate 2 = 67483; Renilla control light, replicate 1 = 2.21e5; Renilla control light, replicate 2 = 2.68e5
beta-Man (beta-Mannosidase) [DRSC12209]: firefly reporter light, replicate 1 = 1.53e5; firefly reporter light, replicate 2 = 1.22e5; Renilla control light, replicate 1 = 3.94e6; Renilla control light, replicate 2 = 2.78e6
